Results reported in patent publication US6344546.
Results are given in words; binding and its absence hold for the method and conditions named. Some results given as binding are weak or reduced against the parent protein; the word gives no strength.

By UniProt entry, the sequences of proteins in these tests, tags left out. Residues count along the entry.
UniProt P21802, residues 22-821: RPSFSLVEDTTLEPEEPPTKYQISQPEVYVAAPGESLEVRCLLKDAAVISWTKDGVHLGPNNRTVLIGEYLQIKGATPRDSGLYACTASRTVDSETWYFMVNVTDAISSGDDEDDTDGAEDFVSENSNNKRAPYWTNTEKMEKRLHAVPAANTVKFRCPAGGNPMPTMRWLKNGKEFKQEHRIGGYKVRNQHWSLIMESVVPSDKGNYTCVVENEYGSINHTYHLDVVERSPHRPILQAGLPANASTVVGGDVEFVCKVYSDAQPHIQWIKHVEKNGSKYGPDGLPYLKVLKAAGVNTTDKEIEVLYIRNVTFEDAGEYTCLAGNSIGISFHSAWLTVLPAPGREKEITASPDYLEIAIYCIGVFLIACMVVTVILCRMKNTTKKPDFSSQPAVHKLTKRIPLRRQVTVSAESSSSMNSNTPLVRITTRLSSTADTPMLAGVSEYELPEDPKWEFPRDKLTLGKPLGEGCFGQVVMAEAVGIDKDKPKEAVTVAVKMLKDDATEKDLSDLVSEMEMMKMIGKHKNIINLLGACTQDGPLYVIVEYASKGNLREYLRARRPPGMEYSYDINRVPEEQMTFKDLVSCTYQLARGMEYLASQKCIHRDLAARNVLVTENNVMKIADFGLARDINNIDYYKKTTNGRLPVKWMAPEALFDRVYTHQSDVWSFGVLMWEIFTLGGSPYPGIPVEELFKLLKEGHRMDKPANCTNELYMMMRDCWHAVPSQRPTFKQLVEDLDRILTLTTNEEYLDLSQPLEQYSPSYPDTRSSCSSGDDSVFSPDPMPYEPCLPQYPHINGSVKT
UniProt P11362, residues 22-822: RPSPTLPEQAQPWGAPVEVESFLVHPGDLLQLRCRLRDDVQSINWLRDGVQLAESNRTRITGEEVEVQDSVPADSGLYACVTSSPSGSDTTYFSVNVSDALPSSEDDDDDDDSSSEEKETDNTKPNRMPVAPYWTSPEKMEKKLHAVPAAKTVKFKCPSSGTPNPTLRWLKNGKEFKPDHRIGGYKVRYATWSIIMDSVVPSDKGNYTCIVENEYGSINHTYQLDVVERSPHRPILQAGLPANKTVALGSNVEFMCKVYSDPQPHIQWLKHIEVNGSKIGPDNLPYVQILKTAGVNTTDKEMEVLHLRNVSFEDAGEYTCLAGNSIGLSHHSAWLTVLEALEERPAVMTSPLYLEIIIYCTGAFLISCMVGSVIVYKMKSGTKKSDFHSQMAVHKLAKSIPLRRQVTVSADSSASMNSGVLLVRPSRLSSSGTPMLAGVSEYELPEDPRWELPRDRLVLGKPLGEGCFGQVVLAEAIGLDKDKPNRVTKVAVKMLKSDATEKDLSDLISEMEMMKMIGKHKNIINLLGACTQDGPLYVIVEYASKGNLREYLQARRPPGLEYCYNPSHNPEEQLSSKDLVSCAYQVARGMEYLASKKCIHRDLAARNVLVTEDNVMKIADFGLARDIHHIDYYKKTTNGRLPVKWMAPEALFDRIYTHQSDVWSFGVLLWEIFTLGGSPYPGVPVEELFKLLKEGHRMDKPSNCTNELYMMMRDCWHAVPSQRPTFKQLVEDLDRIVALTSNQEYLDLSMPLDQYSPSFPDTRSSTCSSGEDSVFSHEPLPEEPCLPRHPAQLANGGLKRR

Experiments:
[1] = target: human bek (bacterially expressed kinase) fibroblast growth factor receptor (human) (UniProt P21802); test: covalent crosslinking of [125I]kFGF to intact NBek13 cells with disuccinimidyl suberate, SDS-PAGE
[2] = target: human flg (fms-like gene) fibroblast growth factor receptor (human) (UniProt P11362); test: covalent crosslinking of [125I]kFGF to intact NFlg26 cells with disuccinimidyl suberate, SDS-PAGE
[3] = target: human bek (bacterially expressed kinase) fibroblast growth factor receptor (human) (UniProt P21802); test: Scatchard analysis of [125I]kFGF saturation binding to bek13 cells

Measured: binding

B1: human recombinant kFGF (ligand, UniProt P08620 31-206, looked up)
chain: APTAPNGTLEAELERRWESLVALSLARLPVAAQPKEAAVQSGAGDYLLGIKRLRRLYCNVGIGFHLQALPDGRIGGAHADTRDSLLELSPVERGVVSIFGVASRFFVAMSSKGKLYGSPFFTDECTFKEILLPNNYNAYESYKYPGMFIALSKNGKTKKGNRVSPTMKVTHFLPRL
modifications: radioiodinated (125I) by Enzymobeads
binds: all assays above
